Reference: the supplement of paper PMC4604168 (melanoma cell lines)
Some of the results follow. Single values are uncertain, as repeats are few or missing.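 Cells were imaged in 1,536-well plates, and nuclei stained with an antibody against cleaved PARP were counted against all DNA-stained nuclei to give the apoptosis fraction. Screening doses were chosen to leave most cells alive, and resting and induced cleaved-PARP levels differ strongly between cell lines.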

Experiments:
Assay in all cases: cleaved PARP positive nuclei fraction relative to DMSO control; melanoma cells; higher = more apoptosis
Details in all cases: library dose: low library concentration; 72 h
[1] = test system: 501Mel
[2] = test system: A101D
[3] = test system: A2058
[4] = test system: A375
[5] = test system: C32
[6] = test system: CBRC008 (line from a melanoma biopsy)
[7] = test system: CBRC014 (line from a melanoma biopsy)
[8] = test system: CBRC016 (line from a melanoma biopsy)
[9] = test system: CBRC017 (line from a melanoma biopsy)
[10] = test system: CBRC034 (line from a melanoma biopsy)
[11] = test system: COLO792
[12] = test system: COLO800
[13] = test system: COLO829
[14] = test system: G361
[15] = test system: IPC-298
[16] = test system: IST-MEL1
[17] = test system: LB2518-MEL
[18] = test system: LOXIMVI
[19] = test system: MEL-HO

| Compound | cleaved PARP positive nuclei fraction [1] | cleaved PARP positive nuclei fraction [2] | cleaved PARP positive nuclei fraction [3] | cleaved PARP positive nuclei fraction [4] | cleaved PARP positive nuclei fraction [5] | cleaved PARP positive nuclei fraction [6] | cleaved PARP positive nuclei fraction [7] | cleaved PARP positive nuclei fraction [8] | cleaved PARP positive nuclei fraction [9] | cleaved PARP positive nuclei fraction [10] | cleaved PARP positive nuclei fraction [11] | cleaved PARP positive nuclei fraction [12] | cleaved PARP positive nuclei fraction [13] | cleaved PARP positive nuclei fraction [14] | cleaved PARP positive nuclei fraction [15] | cleaved PARP positive nuclei fraction [16] | cleaved PARP positive nuclei fraction [17] | cleaved PARP positive nuclei fraction [18] | cleaved PARP positive nuclei fraction [19] |
| --- | --- | --- | --- | --- | --- | --- | --- | --- | --- | --- | --- | --- | --- | --- | --- | --- | --- | --- | --- |
| Cc1cn(-c2cc(NC(=O)c3ccc(C)c(Nc4nccc(-c5cccnc5)n4)c3)cc(C(F)(F)F)c2)cn1 [nilotinib] + Nc1cccc2c1CN(C1CCC(=O)NC1=O)C2=O [lenalidomide] (first compound 0.2 µM, partner dose 1 µM) | 88.9% | 83.8% | 82.2% | 128% | 81.4% | 116% | 102% | 289% | 129% | 66.6% | 206% | 193% | 118% | 95.8% | 130% | 88.3% | 101% | 102% | 114% |
| O=C(Nc1cc(C(F)(F)F)cc(C(F)(F)F)c1)c1cc(Cl)ccc1O + COc1ccc(C2=N[C@@H](c3ccc(Cl)cc3)[C@@H](c3ccc(Cl)cc3)N2C(=O)N2CCNC(=O)C2)c(OC(C)C)c1 [Nutlin-3] (first compound 0.016 µM, partner dose 0.1 µM) | 90.5% | 89.4% | 170% | 129% | 72.2% | 50.2% | 109% | 52.2% | 99.6% | 63.8% | 89.3% | 135% | 135% | 56.4% | 48.2% | 125% | 209% | 96.5% | 84.6% |
| Cc1ccc(Nc2nccc(N(C)c3ccc4c(C)n(C)nc4c3)n2)cc1S(N)(=O)=O [Pazopanib] + Cn1c(Nc2ccc(C(F)(F)F)cc2)nc2cc(Oc3ccnc(-c4ncc(C(F)(F)F)[nH]4)c3)ccc21 [CHIR265] (first compound 0.4 µM, partner dose 0.08 µM) | 120% | 190% | 158% | 313% | 40.1% | 47.5% | 129% | 110% | 132% | 130% | 137% | 56.5% | 82.8% | 201% | 178% | 68.2% | 83.6% | 81.9% | 95.5% |
